Results taken from US7576188B2, “Antitumoral treatments” (Pharma Mar, S.A.U., priority 2004, dated 2009).
Where two headings read alike, the source gives them in different places. At least one read-out could not be matched to a standard name with certainty. Numbered stars: 1 amine (or outer) side, 2 acyl side, 3 side chain; on linkers, the order of the positions; unused ones are H or OH. Bridge positions count the residues as written; N and C are the ends. Square brackets hold non-standard residues; d marks the D form. Peptide text beside a SMILES is read from it. * marks the point of attachment. ξ: configuration not given here. X1 = CC[C@H](C)[C@@H](N[*:1])[C@@H](O)CC(=O)O[C@H](C(=O)[C@H](C)C(=O)[*:2])C(C)C; NMeY = CN[C@@H](Cc1ccc(O)cc1)C(=O)O; dNMeL = CN[C@H](CC(C)C)C(=O)O; Pyruvoyl = CC(=O)C(=O)*; ξP = O=C(O)C1CCCN1

Test system: CCRF-CEM cells
Test: XTT/MTS cytotoxicity, single agents and combinations, CCRF-CEM

CC[C@H](C)[C@H]1NC(=O)[C@@H](NC(=O)[C@@H](CC(C)C)N(C)C(=O)[C@@H]2CCCN2C(=O)C(C)=O)[C@@H](C)OC(=O)[C@H](Cc2ccc(OC)cc2)N(C)C(=O)[C@@H]2CCCN2C(=O)[C@H](CC(C)C)NC(=O)[C@@H](C)C(=O)[C@H](C(C)C)OC(=O)C[C@@H]1O [aplidine, Dehydrodidemnin B] (Pyruvoyl-[ξP][dNMeL]T[X1]LP[NMeY](Me); ester 3-C)
IC50 (read-out: IC50 dose, single agent, 96 hours): 0.5 to 1 nM
IC50 (read-out: IC50 dose, single agent, 96 hours, listed as APL): 0.5 nM
